PubChem BioAssay AID1487 (National Center for Advancing Translational Sciences (NCATS), 2009)
Several values for one entry are separate records, joined by “and”; a condition that tells them apart may be missing. Identical values can stand only once. Some of the results follow. Further columns of the screen follow, without active or inactive calls. Most of these compounds were active or inconclusive in the main read-out, so they are no random draw. Potencies come from curve fits of mixed quality, noted in brackets.

Assay: qHTS Assay for Modulators of Lamin A Splicing
Settings: HeLa LMNA splicing GFP/RFP minigene ratio, 48 h
Method in brief: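 S3 HeLa cells stably expressing lamin A-EGFP splicing minigene plus DsRed2, 600 cells/well, 48 h compound exposure at 37C. Laser-scanning cytometry; analysed as GFP (500-530 nm)/RFP (575-640 nm) total intensity ratio; 0.5% DMSO vehicle.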

[1] = measured here: RFP viability control channel
[2] = measured here: GFP splicing reporter channel

Row | SMILES | AC50 [1] | AC50 [2]
1 | C[C@]12CC[C@@H]3C(=CCc4cc(O)ccc43)[C@@H]1CCC2=O | 14.1 µM [falling, single point] | –
2 | CC(=O)Nc1cc(C(=O)N2CCC3(CC2)OCCO3)ccc1Sc1ccc(F)cc1 | – | 0.141 µM [rising, full curve, poor fit]
3 | OC(CCCN1CCC(O)(c2ccc(Cl)cc2)CC1)c1ccc(F)cc1 (centres undefined) | 15.8 µM [rising, single point] | –
4 | CN(C)c1ccc(C(=O)c2ccc(N(C)C)cc2)cc1 | – | 11.2 µM [falling, partial curve]
5 | C[C@@]12CC[C@H](O)C[C@@H]1CC[C@H]1[C@@H]2C[C@@H](O)[C@]2(C)[C@@H](C3=CC(=O)OC3)CC[C@]12O | 0.224 µM [falling, full curve, poor fit] | 7.08 µM [falling, partial curve, poor fit]
6 | CCOc1ccc(C(=O)Nc2ccc3nc(SCC(=O)N4CCCC4)sc3c2)cc1 | 0.158 µM [falling, full curve] | 0.501 µM [falling, full curve]
7 | C=C[C@@H]1C[C@@]1(C)[C@@H](NP(=O)(c1ccccc1)c1ccccc1)c1ccccc1 | 10 µM [rising, partial curve] | 11.2 µM [rising, single point]
8 | CC(=O)OC1C[C@H](O[C@@H]2C(O)C[C@H](O[C@@H]3C(O)C[C@@H](OC4CC[C@]5(C)C(CCC6C5CC(O)[C@@]5(C)C(C7=CC(=O)OC7)CC[C@@]65O)C4)OC3C)OC2C)O[C@H](C)[C@H]1O[C@H]1OC(CO)C(O)C(O)C1O (some centres undefined) | 0.0562 µM [rising, partial curve, poor fit] | 0.562 µM [falling, full curve]
9 | CN(C(=O)Oc1cccc2cccnc12)c1ccccc1 | 0.251 µM [rising, full curve, poor fit] | –
10 | O=C1NC(=O)N(Cc2ccccc2)C(=O)/C1=C\C=C\c1ccco1 | 28.2 µM [falling, single point] | –
11 | CCOc1c(Cl)cc(CNCCc2c[nH]c3ccccc23)cc1OC | 0.794 µM [falling, full curve, poor fit] | –
12 | CCN(CC)CCOC(=O)c1cc2cc(COC)ccc2o1 | 3.16 µM [falling, full curve] | –
13 | COc1cccc(Oc2c(C)oc3cc(OC(=O)N(C)C)ccc3c2=O)c1 | 0.00398 µM [falling, full curve, poor fit] | –
14 | O=C(OCC1O[C@@H](OC(=O)c2cc(O)c(O)c(O)c2)[C@@H](OC(=O)c2cc(O)c(O)c(O)c2)[C@@H](OC(=O)c2cc(O)c(O)c(O)c2)[C@@H]1OC(=O)c1cc(O)c(O)c(O)c1)c1cc(O)c(O)c(O)c1 (some centres undefined) | 12.6 µM [rising, partial curve, poor fit] | –
15 | CCCCc1nn2c(=O)cc(COC(=O)Cc3ccccc3)nc2s1 | 0.00501 µM [falling, full curve, poor fit] | –
16 | O=C(Nc1ccc(Cl)c(Cl)c1)O/N=C/c1ccncc1 | 31.6 µM [rising, partial curve] | –
17 | Clc1ccc2c(c1)C(c1ccccc1Cl)=NCc1nnc(N3CCN(CCOc4ccccc4)CC3)n1-2 | 15.8 µM [rising, partial curve] | 7.94 µM [rising, partial curve]
18 | c1ccc(OCCSc2nc3ccccc3[nH]2)cc1 | 35.5 µM [rising, single point] | –
19 | CCc1cccc(NC(=O)Cn2c(=O)oc3cc(S(=O)(=O)N4CCOCC4)ccc32)c1 | 12.6 µM [rising, partial curve] | 14.1 µM [rising, single point]
20 | CCOC(=O)C(O)(c1ccc(N(CC)C(=O)COc2ccccc2)cc1)C(F)(F)F (centres undefined) | – | 5.62 µM [falling, single point]
21 | O=c1cc(-c2ccc(O)c(O)c2)oc2cc(O)cc(O)c12 | 3.16 µM [falling, partial curve] | 12.6 µM [falling, single point]
22 | C[C@]12CCC3C(CC[C@H]4C[C@H](O)CC[C@]34C)C1CC[C@@H]2C(=O)CO (some centres undefined) | – | 5.62 µM [falling, partial curve, poor fit]
23 | CCC(=O)O[C@H]1CC[C@H]2[C@@H]3CCC4=CC(=O)CC[C@]4(C)[C@H]3CC[C@]12C | 0.00794 µM [falling, full curve, poor fit] | 0.00501 µM [falling, full curve]
24 | Clc1ccc(COC(Cn2ccnc2)c2ccc(Cl)cc2Cl)c(Cl)c1 (centres undefined) | 8.91 nM [rising, full curve, poor fit] and 4.47 µM [falling, partial curve] | 5.62 µM [falling, single point] and 3.55 µM [falling, partial curve]

Row | SMILES | AC50 [1] | AC50 [2]
25 | Cc1cc(/C=C2/C(=O)NC(=O)N(C)C2=O)c(C)n1-c1ccccc1 | 1 µM [falling, full curve, poor fit] | 0.708 µM [falling, full curve]
26 | CC[C@@H]1CN2CCc3cc(OC)c(OC)cc3[C@H]2C[C@@H]1C[C@H]1NCCc2cc(OC)c(OC)cc21 | 0.178 µM [falling, full curve] | 0.2 µM [falling, full curve]
27 | COCCOC(=O)C1=C(C)OC(N)=C(C(=O)OC)C12C(=O)Nc1ccccc12 (centres undefined) | 11.2 µM [rising, single point] | –
28 | CCCCCC[C@H]1C(=O)O[C@H](C)[C@H](NC(=O)c2cccc(NC=O)c2O)C(=O)O[C@@H](C)[C@H]1OC(=O)CC(C)C | 0.00224 µM [falling, full curve, poor fit] | 0.000891 µM [falling, full curve, poor fit]
29 | Cc1cc(=O)n2[nH]c(C)cc2n1 | 31.6 µM [falling, partial curve, poor fit] | –
30 | C[C@H]1CC[C@]2(OC1)O[C@@H]1C[C@@H]3[C@@H]4CC[C@H]5C[C@@H](O)CC[C@]5(C)[C@@H]4CC(=O)[C@@]3(C)[C@H]1[C@@H]2C | 0.00178 µM [falling, full curve, poor fit] | 0.00355 µM [falling, full curve]
31 | O=C(O)c1[nH]c(=O)[nH]c(=O)c1F | – | 35.5 µM [rising, single point]
32 | CSC(=Nc1ccccc1)c1c(O)n(C)c(=O)n(C)c1=O | 35.5 µM [rising, single point] | 14.1 µM [rising, single point]
33 | NC(=O)c1ncn(C2OC(CO)C(O)C2O)n1 (centres undefined) | 14.1 µM [rising, partial curve] | –
34 | CN(C)C(Cc1ccccc1)C(=O)c1ccccc1 (centres undefined) | – | 0.158 µM [rising, full curve, poor fit]
35 | C[C@H]1CC[C@@]2(NC1)O[C@@H]1C[C@H]3[C@@H]4CC[C@@H]5C[C@@H](O)CC[C@@]5(C)[C@@H]4CC[C@]3(C)[C@@H]1[C@@H]2C | 14.1 µM [falling, single point] | 12.6 µM [falling, single point]
36 | CN1CCN(C2=Nc3cc(Cl)ccc3Nc3ccccc32)CC1 | 1.12 µM [rising, partial curve, poor fit] and 11.2 µM [rising, partial curve] | 251 nM [rising, full curve, poor fit] and 3.55 nM [falling, full curve, poor fit] and 10 µM [falling, partial curve, poor fit]
37 | COc1cccc(CN2CCCCC2c2cccnc2)c1 (centres undefined) | – | 0.224 µM [rising, full curve, poor fit]
38 | c1ccc2sc(SNC3CCCCC3)nc2c1 | – | 0.398 µM [falling, partial curve, poor fit]
39 | Cn1c(=O)cc(OCCCC(=O)N2CCC3(CC2)OCCO3)c2ccccc21 | 5.62 µM [rising, single point] | –
40 | CC(C)CC(NP(=O)(O)O[C@@H]1O[C@@H](C)[C@H](O)[C@@H](O)[C@H]1O)C(=O)NC(Cc1c[nH]c2ccccc12)C(=O)O (some centres undefined) | 6.31 µM [falling, single point] | –
41 | c1cc2c(c(NC3=NCCN3)c1)CCCC2 | 0.794 µM [falling, full curve, poor fit] | 0.000891 µM [falling, full curve, poor fit]
42 | c1ccc2c(c1)[nH]c1cnccc12 | – | 0.00501 µM [falling, full curve, poor fit]
43 | CCC(C)n1c(O)c(/C=N/Nc2ccccc2)c(=O)[nH]c1=S (centres undefined) | 35.5 µM [rising, single point] | –
44 | CCOC(=O)c1ccc(-n2c(N)c(C(=O)NCC3CCCO3)sc2=S)cc1 (centres undefined) | 12.6 µM [rising, partial curve] | 22.4 µM [rising, single point]
45 | O=C1NC(c2cc3ccccc3nc2Cl)Nc2ccccc21 (centres undefined) | 11.2 µM [rising, single point] | 11.2 µM [rising, single point]
46 | O=C(Nc1nnc(-c2ccco2)o1)c1cccc2ccccc12 | 25.1 µM [rising, single point] | –
47 | O=C(NCc1ccccc1)c1cccc(Nc2nc3ccccc3n3nnnc23)c1 | 2.24 µM [falling, full curve] | 0.1 µM [falling, full curve]
48 | O=S1(=O)N(CCN2CC=C(c3c[nH]c4cc(F)ccc34)CC2)c2cccc3c2N1CCC3 | 4.47 µM [falling, full curve, poor fit] | 4.47 µM [falling, full curve, poor fit]
